{"source": "PubChem BioAssay AID1159579 (Peter MacCallum Cancer Centre, 2015)", "assay": "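Follow-up screen seeking modulators of motility in lymphatic endothelial cells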 (follow-up of hits)", "cell system": "human dermal lymphatic endothelial cells", "reagents": "single siRNA against human genes, 25 nM", "read-out": "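Scratch wound imaging measuring area filled by moving cells plus nuclei number, averaged over two wells and scaled to mock-transfected controls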", "direction": "migration relative to mock: higher = more migration into the scratch; mean nuclei count: higher = more cells remaining", "hit rule": "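Called active when the migration ratio is 0.6 or lower (impaired) or 1.3 or higher (accelerated), but inactive whenever the mean nuclei count falls under 3300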", "calls": "active = migration changed (impaired or accelerated); inactive = no migration change, or too few cells", "note": "This is one part, drawn at random, of about 2,000 reagents. 549 of them (27%) were called active. 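Some migration ratios are negative; siRNAs with too few cells are inactive whatever their migration ratio.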 The numbers tell different reagents against one gene apart. Not all columns of the deposit are shown. Not given: the time to read-out."}
{"target": "DLX1", "reagent no.": 1, "migration relative to mock": 0.66, "mean nuclei count": 4815, "outcome": "inactive"}
{"target": "DLX1", "reagent no.": 2, "migration relative to mock": 0.62, "mean nuclei count": 4753, "outcome": "inactive"}
{"target": "DLX1", "reagent no.": 3, "migration relative to mock": 0.68, "mean nuclei count": 5384, "outcome": "inactive"}
{"target": "DLX1", "reagent no.": 4, "migration relative to mock": 0.72, "mean nuclei count": 5314, "outcome": "inactive"}
{"target": "ABCG5", "reagent no.": 1, "migration relative to mock": 0.59, "mean nuclei count": 4648, "outcome": "active"}
{"target": "ABCG5", "reagent no.": 2, "migration relative to mock": 0.31, "mean nuclei count": 2790, "outcome": "inactive"}
{"target": "ABCG5", "reagent no.": 3, "migration relative to mock": 0.9, "mean nuclei count": 5250, "outcome": "inactive"}
{"target": "ABCG5", "reagent no.": 4, "migration relative to mock": 0.74, "mean nuclei count": 5558, "outcome": "inactive"}
{"target": "TGFBR2", "reagent no.": 1, "migration relative to mock": 1.01, "mean nuclei count": 6527, "outcome": "inactive"}
{"target": "TGFBR2", "reagent no.": 2, "migration relative to mock": 0.12, "mean nuclei count": 2758, "outcome": "inactive"}
{"target": "TGFBR2", "reagent no.": 3, "migration relative to mock": 0.8, "mean nuclei count": 5562, "outcome": "inactive"}
{"target": "TGFBR2", "reagent no.": 4, "migration relative to mock": 0.74, "mean nuclei count": 5611, "outcome": "inactive"}
{"target": "MTR", "reagent no.": 1, "migration relative to mock": 0.8, "mean nuclei count": 6194, "outcome": "inactive"}
{"target": "MTR", "reagent no.": 2, "migration relative to mock": 0.65, "mean nuclei count": 5560, "outcome": "inactive"}
{"target": "MTR", "reagent no.": 3, "migration relative to mock": 0.8, "mean nuclei count": 5711, "outcome": "inactive"}
{"target": "MTR", "reagent no.": 4, "migration relative to mock": 0.96, "mean nuclei count": 7451, "outcome": "inactive"}
{"target": "FLT3", "reagent no.": 1, "migration relative to mock": -0.09, "mean nuclei count": 4466, "outcome": "active"}
{"target": "FLT3", "reagent no.": 2, "migration relative to mock": -0.21, "mean nuclei count": 3870, "outcome": "active"}
{"target": "FLT3", "reagent no.": 3, "migration relative to mock": 0.78, "mean nuclei count": 5494, "outcome": "inactive"}
{"target": "FLT3", "reagent no.": 4, "migration relative to mock": 0.8, "mean nuclei count": 6148, "outcome": "inactive"}
{"target": "CT47A4", "reagent no.": 1, "migration relative to mock": 0.94, "mean nuclei count": 6708, "outcome": "inactive"}
{"target": "CT47A4", "reagent no.": 2, "migration relative to mock": 0.63, "mean nuclei count": 5791, "outcome": "inactive"}
{"target": "CT47A4", "reagent no.": 3, "migration relative to mock": 0.62, "mean nuclei count": 5493, "outcome": "inactive"}
{"target": "CT47A4", "reagent no.": 4, "migration relative to mock": 0.92, "mean nuclei count": 5652, "outcome": "inactive"}

Continued, starting with the last 2 of the part before.
{"target": "CT47A4", "reagent no.": 3, "migration relative to mock": 0.62, "mean nuclei count": 5493, "outcome": "inactive"}
{"target": "CT47A4", "reagent no.": 4, "migration relative to mock": 0.92, "mean nuclei count": 5652, "outcome": "inactive"}
{"target": "ADNP", "reagent no.": 1, "migration relative to mock": 1.06, "mean nuclei count": 6132, "outcome": "inactive"}
{"target": "ADNP", "reagent no.": 2, "migration relative to mock": 1.04, "mean nuclei count": 6288, "outcome": "inactive"}
{"target": "ADNP", "reagent no.": 3, "migration relative to mock": 0.78, "mean nuclei count": 5555, "outcome": "inactive"}
{"target": "ADNP", "reagent no.": 4, "migration relative to mock": 1.03, "mean nuclei count": 5423, "outcome": "inactive"}
{"target": "STK33", "reagent no.": 1, "migration relative to mock": 0.53, "mean nuclei count": 5282, "outcome": "active"}
{"target": "STK33", "reagent no.": 2, "migration relative to mock": 0.76, "mean nuclei count": 5792, "outcome": "inactive"}
{"target": "STK33", "reagent no.": 3, "migration relative to mock": 0.81, "mean nuclei count": 6291, "outcome": "inactive"}
{"target": "STK33", "reagent no.": 4, "migration relative to mock": 0.74, "mean nuclei count": 4728, "outcome": "inactive"}
{"target": "KLK11", "reagent no.": 1, "migration relative to mock": 0.66, "mean nuclei count": 4284, "outcome": "inactive"}
{"target": "KLK11", "reagent no.": 2, "migration relative to mock": 0.01, "mean nuclei count": 5876, "outcome": "active"}
{"target": "KLK11", "reagent no.": 3, "migration relative to mock": 0.83, "mean nuclei count": 6600, "outcome": "inactive"}
{"target": "KLK11", "reagent no.": 4, "migration relative to mock": 0.72, "mean nuclei count": 6311, "outcome": "inactive"}
